Measured data: PubChem BioAssay AID1259254 (NCATS, 2017)

Assay: 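Gene knock-downs that lead to re-replication, shown by excess G2 DNA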 (primary screen)
Cells: human HCT116 colorectal cancer cells
Reagents: single siRNA against human genes
Duration: 3 days
Read-out: 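Nuclei stained with Hoechst and imaged; cell-cycle phase assigned by DNA content; G2 share scaled per plate, non-targeting siRNA 0%, GMNN siRNA 100%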
Scale: G2 robust z-score and G2 cells, % of GMNN control: higher = more G2 cells, more excess DNA replication; raw share of cells in G2: higher = larger share of cells with G2 DNA content
Active means: 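Active siRNAs have a G2 robust z of 5 or more median absolute deviations over the median, which in these data means about 38% or higher of GMNN control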
This is one part, drawn at random, of about 59,000 reagents. Over the whole deposit, about 1,550 (2.6%) are marked active. 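G2 share is only a proxy for re-replication; each gene was hit by three separate siRNAs, and active genes were retested.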 Raw values vary from plate to plate and are shown uncorrected. Reagents against one gene are numbered here. No sequences are given here. Not given: the amount of reagent.

target	reagent no.	G2 robust z-score	G2 cells, % of GMNN control	raw share of cells in G2 (%)	call
C12orf60 (GeneID 144608)	1	1.74	15.2	8.93	inactive
C12orf60 (GeneID 144608)	2	-0.467	-0.321	2.81	inactive
C12orf60 (GeneID 144608)	3	-0.484	-0.435	2.92	inactive
KIAA2012-AS1 (GeneID 729224)	1	0.311	5.16	5.11	inactive
KIAA2012-AS1 (GeneID 729224)	2	0.781	8.46	7.17	inactive
KIAA2012-AS1 (GeneID 729224)	3	0.802	8.61	6.09	inactive
ESYT2 (GeneID 57488)	1	-0.635	-1.5	3.75	inactive
ESYT2 (GeneID 57488)	2	-0.452	-0.211	4.36	inactive
ESYT2 (GeneID 57488)	3	-0.977	-3.91	1.79	inactive
MED18 (GeneID 54797)	1	-0.365	0.398	3.32	inactive
MED18 (GeneID 54797)	2	-1.26	-5.88	1.5	inactive
MED18 (GeneID 54797)	3	0.0307	3.18	5.61	inactive
SLITRK3 (GeneID 22865)	1	0.69	7.83	6.54	inactive
SLITRK3 (GeneID 22865)	2	1.85	16	9.5	inactive
SLITRK3 (GeneID 22865)	3	-0.388	0.24	6.47	inactive
AGPAT5 (GeneID 55326)	1	0.654	7.57	7.49	inactive
AGPAT5 (GeneID 55326)	2	-0.386	0.254	4.53	inactive
AGPAT5 (GeneID 55326)	3	2.17	18.2	14.4	inactive
TRPM1 (GeneID 4308)	1	5.99	45.1	21.7	active
TRPM1 (GeneID 4308)	2	-1.48	-7.44	2.26	inactive
TRPM1 (GeneID 4308)	3	-0.466	-0.311	4.25	inactive
KIAA0753 (GeneID 9851)	1	-0.572	-1.06	4.85	inactive
KIAA0753 (GeneID 9851)	2	-0.988	-3.98	2.28	inactive
KIAA0753 (GeneID 9851)	3	-0.76	-2.38	2.54	inactive
ELAC2 (GeneID 60528)	1	1.55	13.9	9.27	inactive
ELAC2 (GeneID 60528)	2	0.309	5.14	6.17	inactive
ELAC2 (GeneID 60528)	3	-0.216	1.45	6.25	inactive
FAM157A (GeneID 728262)	1	-0.688	-1.87	2.83	inactive
FAM157A (GeneID 728262)	2	-0.771	-2.46	2.01	inactive
FAM157A (GeneID 728262)	3	-0.901	-3.37	2.32	inactive
LOC646482 (retired record) (GeneID 646482)	1	0.373	5.59	5.89	inactive
LOC646482 (retired record) (GeneID 646482)	2	-1.03	-4.27	1.64	inactive
LOC646482 (retired record) (GeneID 646482)	3	0.645	7.51	5.43	inactive
OR2F2 (GeneID 135948)	1	1.06	10.4	8.1	inactive
OR2F2 (GeneID 135948)	2	-0.197	1.58	3.6	inactive
OR2F2 (GeneID 135948)	3	-0.34	0.578	2.79	inactive
PDPK1 (GeneID 5170)	1	-0.645	-1.57	5.09	inactive
PDPK1 (GeneID 5170)	2	-0.842	-2.96	4.41	inactive
PDPK1 (GeneID 5170)	3	-1.15	-5.14	2.21	inactive
MYT1L-AS1 (GeneID 730811)	1	-0.391	0.219	3.58	inactive
MYT1L-AS1 (GeneID 730811)	2	0.889	9.22	7.28	inactive
MYT1L-AS1 (GeneID 730811)	3	5.01	38.2	19.2	active
SKIC2 (GeneID 6499)	1	-1.35	-6.52	3.49	inactive
SKIC2 (GeneID 6499)	2	-1.36	-6.62	2.28	inactive
SKIC2 (GeneID 6499)	3	2.24	18.7	10.2	inactive
USP11 (GeneID 8237)	1	0.747	8.22	8.43	inactive
USP11 (GeneID 8237)	2	1.83	15.8	10.5	inactive
USP11 (GeneID 8237)	3	-0.288	0.944	4.26	inactive
MUC5B (GeneID 727897)	1	-0.22	1.42	3.58	inactive
MUC5B (GeneID 727897)	2	-0.51	-0.62	2.95	inactive
MUC5B (GeneID 727897)	3	1.5	13.5	8.27	inactive
SUV39H2 (GeneID 79723)	1	0.163	4.12	6.31	inactive
SUV39H2 (GeneID 79723)	2	-0.998	-4.06	3.74	inactive
SUV39H2 (GeneID 79723)	3	-0.811	-2.74	3.2	inactive
ANO9 (GeneID 338440)	1	0.33	5.29	5.8	inactive
ANO9 (GeneID 338440)	2	2.5	20.5	12.2	inactive
ANO9 (GeneID 338440)	3	0.324	5.25	6.3	inactive
EZH2 (GeneID 2146)	1	-1.6	-8.3	2.22	inactive
EZH2 (GeneID 2146)	2	-0.0774	2.42	6.18	inactive
EZH2 (GeneID 2146)	3	1.58	14.1	8.68	inactive
SNAPC1 (GeneID 6617)	1	0.248	4.72	7.22	inactive
SNAPC1 (GeneID 6617)	2	-1.02	-4.23	2.22	inactive
SNAPC1 (GeneID 6617)	3	0.53	6.7	5.72	inactive
CDC45 (GeneID 8318)	1	0.198	4.36	6.79	inactive
CDC45 (GeneID 8318)	2	0.167	4.14	6.42	inactive
CDC45 (GeneID 8318)	3	6.47	48.5	22.1	active
KLF13 (GeneID 51621)	1	-0.142	1.97	3.49	inactive
KLF13 (GeneID 51621)	2	-1.21	-5.56	3.4	inactive
KLF13 (GeneID 51621)	3	-0.158	1.86	4.22	inactive

Copied from the list:
KIAA0753 (GeneID 9851) #1, G2 cells, % of GMNN control = -1.06
Result of SNAPC1 (GeneID 6617) #2 in “call”: inactive
ELAC2 (GeneID 60528) #1, call: inactive
Under “G2 cells, % of GMNN control”, EZH2 (GeneID 2146) #3 has 14.1
Result for MED18 (GeneID 54797) #3 in “raw share of cells in G2 (%)”: 5.61
ANO9 (GeneID 338440) #1, call → inactive
